Reference: paper PMC5431813
These are yes or no findings as the source states them, for the method shown. Binding seen in cells or lysates may run through a third protein. Some binding calls cover weakened binding; strength is not graded here.

By UniProt entry, the sequences of proteins in these tests, tags left out. Where a name states a change or a piece, a line headed by the entry shows the natural chain unless it says otherwise.
UniProt Q8CGX0: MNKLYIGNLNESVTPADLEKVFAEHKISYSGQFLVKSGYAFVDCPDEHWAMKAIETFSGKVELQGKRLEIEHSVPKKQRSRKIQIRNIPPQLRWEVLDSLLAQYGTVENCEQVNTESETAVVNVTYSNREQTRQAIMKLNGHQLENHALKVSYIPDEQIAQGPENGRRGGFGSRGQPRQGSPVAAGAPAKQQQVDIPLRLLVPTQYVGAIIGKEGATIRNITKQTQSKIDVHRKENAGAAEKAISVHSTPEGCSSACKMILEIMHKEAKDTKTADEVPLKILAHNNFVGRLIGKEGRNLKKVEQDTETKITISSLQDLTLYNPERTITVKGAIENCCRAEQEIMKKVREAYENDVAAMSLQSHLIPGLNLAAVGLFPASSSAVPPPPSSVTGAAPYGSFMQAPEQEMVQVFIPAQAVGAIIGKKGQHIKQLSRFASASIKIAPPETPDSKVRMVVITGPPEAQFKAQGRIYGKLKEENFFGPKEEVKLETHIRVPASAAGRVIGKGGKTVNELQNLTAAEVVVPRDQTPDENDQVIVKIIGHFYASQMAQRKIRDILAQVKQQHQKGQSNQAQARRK
UniProt Q12840: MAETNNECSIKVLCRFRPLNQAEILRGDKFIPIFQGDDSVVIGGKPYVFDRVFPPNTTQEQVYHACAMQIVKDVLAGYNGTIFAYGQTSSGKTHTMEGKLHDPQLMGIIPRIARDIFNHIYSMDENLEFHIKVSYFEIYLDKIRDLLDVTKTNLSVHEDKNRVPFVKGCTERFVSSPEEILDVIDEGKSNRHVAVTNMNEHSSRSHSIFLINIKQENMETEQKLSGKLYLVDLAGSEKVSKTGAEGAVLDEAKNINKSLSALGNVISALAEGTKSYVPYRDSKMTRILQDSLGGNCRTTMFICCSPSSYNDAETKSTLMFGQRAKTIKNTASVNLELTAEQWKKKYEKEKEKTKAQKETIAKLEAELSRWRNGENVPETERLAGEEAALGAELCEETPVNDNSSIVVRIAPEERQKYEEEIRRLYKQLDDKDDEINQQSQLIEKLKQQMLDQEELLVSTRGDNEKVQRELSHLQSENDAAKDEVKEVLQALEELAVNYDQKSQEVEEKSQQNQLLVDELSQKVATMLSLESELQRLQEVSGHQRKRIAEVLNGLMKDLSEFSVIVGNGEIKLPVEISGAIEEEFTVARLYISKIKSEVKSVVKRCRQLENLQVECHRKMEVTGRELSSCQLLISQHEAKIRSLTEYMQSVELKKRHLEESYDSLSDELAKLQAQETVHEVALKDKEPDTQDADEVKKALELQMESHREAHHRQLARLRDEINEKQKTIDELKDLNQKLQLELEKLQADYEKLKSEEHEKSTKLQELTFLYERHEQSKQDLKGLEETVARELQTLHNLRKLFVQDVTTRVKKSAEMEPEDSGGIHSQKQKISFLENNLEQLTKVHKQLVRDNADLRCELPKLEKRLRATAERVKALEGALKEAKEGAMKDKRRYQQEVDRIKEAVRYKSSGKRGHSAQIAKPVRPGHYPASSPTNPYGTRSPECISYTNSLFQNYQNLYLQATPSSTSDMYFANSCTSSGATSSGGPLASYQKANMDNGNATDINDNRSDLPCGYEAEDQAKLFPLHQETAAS

Legend:
[1] = target: HA-BIO-ZBP1 (Bio-Thrombin-HA-ZBP1, wildtype) (rat) (UniProt Q8CGX0); test: co-IP; Neuro2a cells co-transfected with Kif5a-GFP and HA/Bio-tagged ZBP1 or its S181A mutant, 48 h; lysis in 50 mM Tris pH 7.5, 150 mM NaCl, 0.1% Triton X-100, 2 mM EDTA, 2 mM MgCl2, 2 mM ATP; overnight with anti-HA magnetic beads; four washes in lysis buffer without ATP; Western blot
[2] = target: HA-BIO-ZBP1_(S181A) (Bio-Thrombin-HA-ZBP1 S181A) (rat) (UniProt Q8CGX0); test: as above

- binding [1]: binds
- binding [2]: binds
Substance: KIF5A-GFP (from UniProt Q12840 1-1032)
